Experimental data: PubChem BioAssay AID1259279 (Sanger Institute, 2017)

- Screen: 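Kinases that colorectal cancer cells need to survive, alone or with drugs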 (primary screen)
- Cell system: LS180 human colorectal cancer cells
- Reagent: siRNA pool against human genes
- Treatment: anchor drug BYL719 at 1 µM, cetuximab at 5 µg/ml or trametinib at 10 nM, or DMSO vehicle only
- Measurement: 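Cell viability versus a non-targeting pool, as a fraction and as a robust z-score from replicate means, plus a synergy score for each of three drugs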
- Reading the numbers: viability z-score, no drug: higher = more viable cells after knock-down; viability, no drug: higher = more viable cells; synergy score with BYL719 and synergy score with cetuximab: higher = stronger synthetic lethal synergy with drug
- Call rule: 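Essential (active) calls need a no-drug viability z-score lower than -3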
- Calls: active = essential (knock-down alone cuts viability); inactive = no change without drug
Shown is an unselected part of 794 deposited reagents. 11 of all reagents (1.4%) were called active. 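Calls reflect knock-down alone in the vehicle arm, not drug synergy.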 No viability above 1 is reported: the scale is capped. Further read-outs or replicates are left out here. Not given: the amount of reagent, the time to read-out.

Gene	viability z-score, no drug	viability, no drug (fraction)	synergy score with BYL719	synergy score with cetuximab	Outcome
CRKL (CRK like proto-oncogene, adaptor protein)	-0.0146	0.905	-0.105	-0.245	inactive
SNRK (SNF related kinase)	0.561	0.967	0.151	0.213	inactive
NME6 (NME/NM23 nucleoside diphosphate kinase 6)	-0.225	0.882	-0.00168	0.0603	inactive
NUP107 (nucleoporin 107)	-1.03	0.793	-0.11	-0.0333	inactive
PGK1 (phosphoglycerate kinase 1)	0.86	1	-0.0171	-0.0538	inactive
NRAS (NRAS proto-oncogene, GTPase)	0.86	1	-0.0164	-0.0681	inactive
PHKG1 (phosphorylase kinase catalytic subunit gamma 1)	0.86	1	-0.0429	-0.0519	inactive
TP53RK (TP53 regulating kinase)	0.0543	0.912	0.0414	0.0695	inactive
LTK (leukocyte receptor tyrosine kinase)	-0.73	0.827	-0.169	-0.0238	inactive
TTBK2 (tau tubulin kinase 2)	-1.31	0.764	-0.0345	-0.195	inactive
CREBBP (CREB binding lysine acetyltransferase)	0.182	0.926	0.0279	-0.0519	inactive
WNK3 (WNK lysine deficient protein kinase 3)	0.86	1	-0.178	-0.166	inactive
MAP3K5 (mitogen-activated protein kinase kinase kinase 5)	0.377	0.947	-0.033	-0.135	inactive
CAMK1D (calcium/calmodulin dependent protein kinase ID)	0.495	0.96	-0.22	-0.179	inactive
WNK2 (WNK lysine deficient protein kinase 2)	0.86	1	-0.201	-0.166	inactive
ROCK1 (Rho associated coiled-coil containing protein kinase 1)	0.86	1	-0.131	-0.145	inactive
ACVR1B (activin A receptor type 1B)	-0.746	0.825	-0.194	-0.0805	inactive
SPEG (striated muscle enriched protein kinase)	0.86	1	-0.159	-0.156	inactive
STK39 (serine/threonine kinase 39)	-0.731	0.827	0.00442	0.00258	inactive
PKN2 (protein kinase N2)	0.473	0.958	0.1	-0.123	inactive

A run of entries of the results above, as a working copy:
Gene	viability z-score, no drug	viability, no drug (fraction)	synergy score with BYL719	synergy score with cetuximab	Outcome
WNK2 (WNK lysine deficient protein kinase 2)	0.86	1	-0.201	-0.166	inactive
ROCK1 (Rho associated coiled-coil containing protein kinase 1)	0.86	1	-0.131	-0.145	inactive
